Experimental data published in the supplement of paper PMC7877785.
± gives the uncertainty stated by the source. Many entries were measured with a wide error.

Assay: self-splicing fitness, log relative to wild type (ln ratio); higher = more splicing; Tetrahymena group I intron in knt gene, E. coli kanamycin selection, DiMSum; sequences stand for … in CUCUCU…GGAGGGAAAAGUUAUCAGGCAUGCACCUGGUAGCUAGUCUUUAAACCAAUAGAUUGCAUCGGUUUAAAAGGCAAGACCGUCAAAUUGCGGGAAAGGGGUCAACAGCCGUUCAGUACCAAGUCUCAGGGGAAACUUUGAGAUGGCCUUGCAAAGGGUAUGGUAAUAAGCUGACGGACAUGGUCCUAACCACGCAGCCAAGUCCUAAGUCAACAGAUCUUCUGUUGAUAUGGAUGCAGUUCACAGACUAAAUGUCGGUCGGGGAAGAUGUAUUCUUCUCAUAAGAUAUAGUCGGACCUCUCCUUAAUGGGAGCUAGCGGAUGAAGUGAUGCAACACUGGAGCCGCUGGGAACUAAUUUGUAUGCGAAAGUAUAUUGAUUAGUUUUGGAGUACUCGUGGUCG
Procedure, shortened: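 The eight P1ex-region nucleotides of an intron in the knt kanamycin-resistance gene on pET-22b(+) were all randomised and the library put into E. coli BL21(DE3). Six replicate transformations were grown overnight at 37°C or 30°C on LB agar with or without 25 μg/mL kanamycin, together with 100 μg/mL carbenicillin, 50 μM IPTG and 0.2% rhamnose. Colonies were pooled and amplicon-sequenced on an Illumina HiSeq 2500. Fitness from DiMSum is the error-weighted combination of wild-type-normalised replicate fold changes, kanamycin over none.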

| Sequence | self-splicing fitness (ln) (30 °C) | self-splicing fitness (ln) (37 °C) |
| --- | --- | --- |
| CCCGAGCAAUAUUACGCCAA | -3.35 ± 0.31 | -2.12 ± 0.26 |
| UUUGAGCAAUAUUACGUUUC | -4.01 ± 0.53 |  |
| GGUGAGCAAUAUUACGCCUG | -5.46 ± 1 |  |
| GUUAAGCAAUAUUACGUUUG | -2.55 ± 0.12 | -1.86 ± 0.17 |
| CUUAAGCAAUAUUACGUAUC | -3.91 ± 0.52 |  |
| GGGGAGCAAUAUUACGCUAC | -2.94 ± 1.1 | -3.3 ± 1 |
| AAAUAGCAAUAUUACGCGCA | -0.264 ± 0.092 | -0.103 ± 0.11 |
| GCUAAGCAAUAUUACGACGA | -0.978 ± 0.088 | -0.529 ± 0.1 |
| AUAUAGCAAUAUUACGUAAG | -1.61 ± 0.14 | -0.705 ± 0.19 |
| AUGCAGCAAUAUUACGCGGC |  | -1.77 ± 0.58 |
| CAGGAGCAAUAUUACGGUAC | -3.14 ± 0.64 | -1.13 ± 1.2 |
| UCAGAGCAAUAUUACGCGGC |  | -3.08 ± 0.4 |
| GUCGAGCAAUAUUACGCGAA | -1.39 ± 0.17 | 0.0361 ± 0.17 |
| GCGCAGCAAUAUUACGCGCG |  | -2.82 ± 0.53 |
| UGGGAGCAAUAUUACGGAAA |  | -2.18 ± 0.64 |
| CGUGAGCAAUAUUACGCUAA | -2.21 ± 1.1 |  |
| AAUGAGCAAUAUUACGCACG |  | -1.5 ± 0.5 |
| CUUAAGCAAUAUUACGGAGC | -4.21 ± 0.53 |  |
| CGUGAGCAAUAUUACGCACC |  | -2.44 ± 0.54 |
| GGGGAGCAAUAUUACGGAUG | -4.45 ± 0.6 | -1.14 ± 0.56 |
| UCAAAGCAAUAUUACGCACC | -2.25 ± 0.54 |  |
| ACGCAGCAAUAUUACGAGAC | -5.22 ± 1 | -1.94 ± 0.56 |
| AAGUAGCAAUAUUACGGACC | -1.96 ± 0.7 |  |
| GGUGAGCAAUAUUACGACCC | -4.12 ± 0.6 | -1.89 ± 0.53 |

| Sequence | self-splicing fitness (ln) (30 °C) | self-splicing fitness (ln) (37 °C) |
| --- | --- | --- |
| AUACAGCAAUAUUACGCUGU | -4.13 ± 0.36 | -3.51 ± 0.33 |
| AAAAAGCAAUAUUACGUUGU | -3.71 ± 0.15 | -2.01 ± 0.14 |
| CGAUAGCAAUAUUACGCACU | -1.12 ± 0.14 | 0.174 ± 0.14 |
| CGUGAGCAAUAUUACGCAGA | -1.55 ± 0.84 |  |
| GCGGAGCAAUAUUACGUGAA | -3.19 ± 0.58 | -2.62 ± 0.61 |
| AGGGAGCAAUAUUACGCAUG | -2.09 ± 1.4 | -2.9 ± 0.74 |
| AUUGAGCAAUAUUACGCCAC |  | -2.05 ± 1.1 |
| GAAAAGCAAUAUUACGUUGG | -3.55 ± 0.19 | -2.16 ± 0.16 |
| CUUGAGCAAUAUUACGGCCG | -3.37 ± 0.56 |  |
| CUCCAGCAAUAUUACGUCAA | -3.08 ± 0.19 | -3.24 ± 0.23 |
| CCUGAGCAAUAUUACGAACC |  | -2.87 ± 0.74 |
| UUGCAGCAAUAUUACGCAGU | -4.59 ± 0.59 | -2.71 ± 0.39 |
| GGGGAGCAAUAUUACGUCGA |  | -3.13 ± 0.74 |
| CCCGAGCAAUAUUACGCCAG |  | -3.49 ± 0.59 |
| UGCCAGCAAUAUUACGCCUG | -2.1 ± 0.16 | -0.0397 ± 0.12 |
| GAUUAGCAAUAUUACGAUGU | -0.783 ± 0.074 | -0.611 ± 0.1 |
| GGGUAGCAAUAUUACGAGUG | -2.81 ± 0.82 | -1.63 ± 0.55 |
| CCUGAGCAAUAUUACGGACC | -4.88 ± 0.51 |  |
| CCUUAGCAAUAUUACGCCGC |  | -1.66 ± 0.58 |
| AUUGAGCAAUAUUACGCGGU |  | -3.76 ± 0.59 |
| UAUUAGCAAUAUUACGCUAU | -2.85 ± 0.5 |  |
| GACGAGCAAUAUUACGCCAG | -4.66 ± 1 |  |
| UAUUAGCAAUAUUACGAGGA | -2.33 ± 0.19 | -1.54 ± 0.18 |
| UAAGAGCAAUAUUACGCCCA | -2.62 ± 0.26 | -2.09 ± 0.41 |

| Sequence | self-splicing fitness (ln) (30 °C) | self-splicing fitness (ln) (37 °C) |
| --- | --- | --- |
| UACGAGCAAUAUUACGGUCC |  | -1.95 ± 0.51 |
| AUCUAGCAAUAUUACGAGAA | -1.52 ± 1.2 | -1.35 ± 0.75 |
| GGCGAGCAAUAUUACGGACC | -2.14 ± 0.52 |  |
| AUGUAGCAAUAUUACGUCUC | -4.19 ± 0.59 |  |
| AGAAAGCAAUAUUACGUCUC |  | -0.778 ± 1.4 |
| CUUGAGCAAUAUUACGGUCC |  | -2.84 ± 0.61 |
| CUUAAGCAAUAUUACGAAUU | -3.26 ± 0.22 | -0.957 ± 0.17 |
| CGGAAGCAAUAUUACGCUUG | -4.93 ± 0.72 | -2.42 ± 0.27 |
| AUAGAGCAAUAUUACGCCGC | -2.59 ± 0.55 |  |
| UUUGAGCAAUAUUACGAGGC |  | -4.08 ± 0.59 |
| UAUUAGCAAUAUUACGGCCC |  | -1.09 ± 0.83 |
| UCUCAGCAAUAUUACGUGUA | -1.47 ± 0.089 | -0.902 ± 0.08 |
| AACUAGCAAUAUUACGUUGU | -3.51 ± 0.13 | -2.29 ± 0.12 |
| UUCAAGCAAUAUUACGCCAC | -4.22 ± 0.76 | -2.33 ± 0.5 |
| GUUUAGCAAUAUUACGAAGA | -3.51 ± 0.76 |  |
| AUUUAGCAAUAUUACGAGGG | -3.96 ± 0.52 |  |
| AGCGAGCAAUAUUACGUCUC | -3.21 ± 1.1 | -2.54 ± 0.77 |
| UGCAAGCAAUAUUACGAAGC | -4.66 ± 1 |  |
| GUCUAGCAAUAUUACGAGCC | -1.32 ± 1.4 | -1.15 ± 0.67 |
| UCUUAGCAAUAUUACGCCAG |  | -2.48 ± 0.54 |
| AUCUAGCAAUAUUACGCCGG | -3.28 ± 0.53 |  |
| UCGGAGCAAUAUUACGAAGA | -3.23 ± 0.61 |  |
| CGCGAGCAAUAUUACGGAUA |  | -2.79 ± 0.53 |
| CUCAAGCAAUAUUACGGCCA | -3.7 ± 1 | -2.96 ± 0.62 |

22 neighbouring records from above, quoted:

| Sequence | self-splicing fitness (ln) (30 °C) | self-splicing fitness (ln) (37 °C) |
| --- | --- | --- |
| AUCUAGCAAUAUUACGAGAA | -1.52 ± 1.2 | -1.35 ± 0.75 |
| GGCGAGCAAUAUUACGGACC | -2.14 ± 0.52 |  |
| AUGUAGCAAUAUUACGUCUC | -4.19 ± 0.59 |  |
| AGAAAGCAAUAUUACGUCUC |  | -0.778 ± 1.4 |
| CUUGAGCAAUAUUACGGUCC |  | -2.84 ± 0.61 |
| CUUAAGCAAUAUUACGAAUU | -3.26 ± 0.22 | -0.957 ± 0.17 |
| CGGAAGCAAUAUUACGCUUG | -4.93 ± 0.72 | -2.42 ± 0.27 |
| AUAGAGCAAUAUUACGCCGC | -2.59 ± 0.55 |  |
| UUUGAGCAAUAUUACGAGGC |  | -4.08 ± 0.59 |
| UAUUAGCAAUAUUACGGCCC |  | -1.09 ± 0.83 |
| UCUCAGCAAUAUUACGUGUA | -1.47 ± 0.089 | -0.902 ± 0.08 |
| AACUAGCAAUAUUACGUUGU | -3.51 ± 0.13 | -2.29 ± 0.12 |
| UUCAAGCAAUAUUACGCCAC | -4.22 ± 0.76 | -2.33 ± 0.5 |
| GUUUAGCAAUAUUACGAAGA | -3.51 ± 0.76 |  |
| AUUUAGCAAUAUUACGAGGG | -3.96 ± 0.52 |  |
| AGCGAGCAAUAUUACGUCUC | -3.21 ± 1.1 | -2.54 ± 0.77 |
| UGCAAGCAAUAUUACGAAGC | -4.66 ± 1 |  |
| GUCUAGCAAUAUUACGAGCC | -1.32 ± 1.4 | -1.15 ± 0.67 |
| UCUUAGCAAUAUUACGCCAG |  | -2.48 ± 0.54 |
| AUCUAGCAAUAUUACGCCGG | -3.28 ± 0.53 |  |
| UCGGAGCAAUAUUACGAAGA | -3.23 ± 0.61 |  |
| CGCGAGCAAUAUUACGGAUA |  | -2.79 ± 0.53 |

(list continues)

| Sequence | self-splicing fitness (ln) (30 °C) | self-splicing fitness (ln) (37 °C) |
| --- | --- | --- |
| GGUCAGCAAUAUUACGGGCC | -4.2 ± 0.6 | -2.52 ± 0.77 |
| CCCAAGCAAUAUUACGGUUC | -3.38 ± 0.13 | -2.6 ± 0.18 |
| CCUAAGCAAUAUUACGACAC | -3.33 ± 0.44 | -2.03 ± 0.29 |
| GACGAGCAAUAUUACGCGUC |  | -2.2 ± 1.1 |
| GUCGAGCAAUAUUACGAGAC | -0.29 ± 0.8 |  |
| CAGGAGCAAUAUUACGUCGA | -3.23 ± 1 | -1.96 ± 0.65 |
| UGCGAGCAAUAUUACGACCA |  | -0.45 ± 0.53 |
| CUGCAGCAAUAUUACGGCAG | -2.63 ± 0.22 | -2.27 ± 0.2 |
| CCGAAGCAAUAUUACGCUCU |  | -1.3 ± 0.53 |
| GAGGAGCAAUAUUACGUUGG | -3.46 ± 0.62 |  |
| UGGCAGCAAUAUUACGCUAC |  | -2.54 ± 0.51 |
| AGCGAGCAAUAUUACGUUCC | -2.86 ± 0.61 | -1.3 ± 0.24 |
| CUGAAGCAAUAUUACGCUUA | -3.82 ± 0.3 | -2.13 ± 0.23 |
| UCAUAGCAAUAUUACGCUUA | -1.98 ± 0.55 |  |
| GAGGAGCAAUAUUACGCUGC |  | -1.99 ± 0.52 |
| AGCGAGCAAUAUUACGCCAG | -2.62 ± 0.62 | -3.25 ± 0.53 |
| UAGCAGCAAUAUUACGAUGC | -3.13 ± 1 |  |
| CGAGAGCAAUAUUACGUCUU | -3.66 ± 0.43 | -1.39 ± 0.22 |
| CGGGAGCAAUAUUACGAUUA | -2.65 ± 1.1 |  |
| UAAUAGCAAUAUUACGAAGU | -2.7 ± 0.76 |  |
| CCGAAGCAAUAUUACGCCGG | -4.5 ± 0.51 |  |
| UUUGAGCAAUAUUACGGCCC |  | 1.8 ± 0.53 |
